This passage reports binding results from PMC3605572.

The chains behind the UniProt entries cited, without tags or fusion partners.
UniProt Q9UKV8: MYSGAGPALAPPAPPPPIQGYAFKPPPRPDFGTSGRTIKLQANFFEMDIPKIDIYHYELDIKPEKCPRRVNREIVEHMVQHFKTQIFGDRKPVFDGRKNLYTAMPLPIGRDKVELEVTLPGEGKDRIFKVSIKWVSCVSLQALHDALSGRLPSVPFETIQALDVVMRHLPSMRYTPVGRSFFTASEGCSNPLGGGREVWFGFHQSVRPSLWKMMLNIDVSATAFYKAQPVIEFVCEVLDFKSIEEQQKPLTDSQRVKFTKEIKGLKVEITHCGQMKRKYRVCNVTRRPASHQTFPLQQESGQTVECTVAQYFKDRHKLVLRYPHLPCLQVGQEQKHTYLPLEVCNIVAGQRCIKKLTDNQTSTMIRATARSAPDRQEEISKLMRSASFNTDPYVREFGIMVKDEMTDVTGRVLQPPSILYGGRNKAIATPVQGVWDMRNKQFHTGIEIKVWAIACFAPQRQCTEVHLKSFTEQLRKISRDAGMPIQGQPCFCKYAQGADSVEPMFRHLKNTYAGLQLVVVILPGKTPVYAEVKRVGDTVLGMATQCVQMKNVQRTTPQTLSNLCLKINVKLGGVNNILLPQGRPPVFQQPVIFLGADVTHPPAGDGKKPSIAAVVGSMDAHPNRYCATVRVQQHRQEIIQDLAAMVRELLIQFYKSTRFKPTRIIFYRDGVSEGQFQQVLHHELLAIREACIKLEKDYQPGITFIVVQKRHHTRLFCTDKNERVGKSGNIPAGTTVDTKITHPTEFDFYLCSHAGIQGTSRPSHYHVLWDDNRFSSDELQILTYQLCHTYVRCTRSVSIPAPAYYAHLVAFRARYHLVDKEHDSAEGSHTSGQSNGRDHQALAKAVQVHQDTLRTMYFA
UniProt Q9UPY3: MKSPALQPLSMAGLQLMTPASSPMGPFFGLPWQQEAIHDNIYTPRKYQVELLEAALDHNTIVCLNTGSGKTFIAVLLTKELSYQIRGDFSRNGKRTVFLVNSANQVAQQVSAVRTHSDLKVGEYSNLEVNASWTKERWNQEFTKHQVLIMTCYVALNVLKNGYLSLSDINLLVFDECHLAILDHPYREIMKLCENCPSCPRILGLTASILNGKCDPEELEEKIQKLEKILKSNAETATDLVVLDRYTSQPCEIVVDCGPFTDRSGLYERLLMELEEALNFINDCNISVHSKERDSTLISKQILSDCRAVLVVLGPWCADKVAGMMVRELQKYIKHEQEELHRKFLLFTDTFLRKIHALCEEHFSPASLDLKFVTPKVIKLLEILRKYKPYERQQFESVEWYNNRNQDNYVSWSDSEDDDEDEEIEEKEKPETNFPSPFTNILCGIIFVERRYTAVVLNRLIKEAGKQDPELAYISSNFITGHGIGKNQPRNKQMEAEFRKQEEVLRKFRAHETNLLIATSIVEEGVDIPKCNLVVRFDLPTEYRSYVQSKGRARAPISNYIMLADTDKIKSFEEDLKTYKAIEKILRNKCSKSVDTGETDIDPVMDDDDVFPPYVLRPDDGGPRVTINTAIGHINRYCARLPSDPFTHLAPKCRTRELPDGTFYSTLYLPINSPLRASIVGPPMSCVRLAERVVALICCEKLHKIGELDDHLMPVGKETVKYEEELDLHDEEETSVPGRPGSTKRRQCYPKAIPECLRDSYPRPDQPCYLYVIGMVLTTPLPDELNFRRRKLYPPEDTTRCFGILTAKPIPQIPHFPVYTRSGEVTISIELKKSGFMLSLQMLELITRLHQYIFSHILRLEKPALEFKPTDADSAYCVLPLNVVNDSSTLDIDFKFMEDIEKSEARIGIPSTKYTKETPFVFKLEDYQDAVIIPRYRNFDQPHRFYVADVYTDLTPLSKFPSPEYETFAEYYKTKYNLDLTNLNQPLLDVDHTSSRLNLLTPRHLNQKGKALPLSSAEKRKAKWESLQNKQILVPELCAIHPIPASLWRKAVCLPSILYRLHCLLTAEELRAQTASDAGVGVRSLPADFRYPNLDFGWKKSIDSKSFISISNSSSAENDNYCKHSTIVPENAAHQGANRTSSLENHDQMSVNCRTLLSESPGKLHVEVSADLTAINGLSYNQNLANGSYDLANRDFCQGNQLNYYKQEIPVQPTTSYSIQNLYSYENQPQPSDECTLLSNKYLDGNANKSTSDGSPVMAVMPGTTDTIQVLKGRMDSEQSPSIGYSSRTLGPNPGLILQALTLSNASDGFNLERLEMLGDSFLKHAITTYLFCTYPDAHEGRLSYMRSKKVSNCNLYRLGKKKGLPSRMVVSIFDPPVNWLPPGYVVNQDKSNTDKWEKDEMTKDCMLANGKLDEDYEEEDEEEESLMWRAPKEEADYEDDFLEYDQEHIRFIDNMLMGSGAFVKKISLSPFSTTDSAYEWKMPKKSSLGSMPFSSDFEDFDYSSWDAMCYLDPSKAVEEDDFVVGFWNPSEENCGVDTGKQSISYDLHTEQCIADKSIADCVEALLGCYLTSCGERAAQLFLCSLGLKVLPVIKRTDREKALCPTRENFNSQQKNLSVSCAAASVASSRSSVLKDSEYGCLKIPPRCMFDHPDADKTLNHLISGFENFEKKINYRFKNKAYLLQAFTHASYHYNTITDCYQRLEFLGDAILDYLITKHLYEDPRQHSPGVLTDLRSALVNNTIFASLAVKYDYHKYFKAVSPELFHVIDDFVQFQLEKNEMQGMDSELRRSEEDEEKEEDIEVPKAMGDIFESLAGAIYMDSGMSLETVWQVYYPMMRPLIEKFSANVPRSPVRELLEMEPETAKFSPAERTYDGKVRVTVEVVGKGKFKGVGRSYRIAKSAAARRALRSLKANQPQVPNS

Results are given in words; binding and its absence hold for the method and conditions named. Binding seen in cells or lysates may run through a third protein. Some results given as binding are weak or reduced against the parent protein; the word gives no strength.

The test addresses FLAG-HA-AGO2 (UniProt Q9UKV8). Put plainly: co-IP; extracts of HEK293 stably expressing FLAG-HA-AGO2 and transfected with NHA-DICER1, with or without digestion by purified gp63; FLAG-HA-AGO2 immunoprecipitated with anti-FLAG M2 affinity gel; associated DICER1 detected by western blot.

As for “NHA-DICER1 (from UniProt Q9UPY3 1-1922) (enzyme)”, the binding result was “binds”.
